Results published in PubChem BioAssay AID504834 (National Center for Advancing Translational Sciences (NCATS), 2011).
Among all 320,000 compounds or so, about 22,000 (6.9%) were called active. Inconclusive results, whose numbers are uncertain, are shown with a selection of clear calls. Calls come from the whole dose curve; as a rule, active = well fitted inhibition curve with a large enough effect; inconclusive = small, poorly fitted or top-dose-only effect, or another doubt; inactive = no such curve, though single readings can be large or run the other way. Where the call is inconclusive, the potency comes from a doubtful curve fit.

Assay: Primary qHTS for delayed death inhibitors of the malarial parasite plastid, 96 hour incubation
Conditions: P. falciparum luciferase reporter growth; series mostly up to 28.7 µM; activity change, negative = inhibition: at the top concentration
Summary of the method: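 Cell-based qHTS: luciferase-tagged P. falciparum in erythrocytes (2% hematocrit, 0.05% parasitemia final) incubated with compounds for 96 hours, 37 C, 5% CO2; luciferase detection reagent then added and luminescence measured.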
% is set by controls: 0 for no effect and ±100 for the full control effect; potency is the fitted concentration of half-maximal effect.

Compound | Potency | activity change, negative = inhibition
CCC(=O)Nc1ccc(C(=O)CSc2nnc(-c3ccc(NS(C)(=O)=O)cc3)n2C)cc1OC | active: 0.465 µM | 
O=C(Cc1ccccc1)Nc1ccc(C(=O)Nc2ccc(O)cc2)cc1 |  | inactive: 23.4%
COc1ccc(NC(=O)c2cccc3c2C(=O)N(CC2CCCO2)C3)cc1OC (stereo unspecified) | inconclusive: 13.1 µM [inhibitor, single point] | 
COc1cccc(CNC(=O)c2ccc(NC(=O)CC3SC(N4CCCCC4)=NC3=O)cc2)c1 (stereo unspecified) | inconclusive: 18.5 µM [inhibitor, single point] | 
COc1ccc(OC)c(NC(=O)CCCNC(=O)c2ccc(Cl)cc2)c1 |  | inactive: 6.85%
C=C1CCC2[C@](C)(CO[C@@H]3O[C@H](CO)[C@@H](O)[C@H](O)[C@H]3O)CCC[C@@]2(C)[C@@H]1CCC1=CCOC1=O (stereo partly specified) |  | inactive: 1.67%
CC(=O)/C(=N/Nc1ccccc1[N+](=O)[O-])N1CCCc2ccccc21 | inconclusive: 9.28 µM [inhibitor, single point] | 
COC(=O)c1sccc1Oc1ccc(F)cc1[N+](=O)[O-] | inconclusive: 0.0052 µM [inhibitor, full curve, poor fit] | 
Cc1cc(C)nc(NC(=O)CSc2nc3ccccc3o2)n1 |  | inactive: 253%
COc1cc(CN(C)Cc2cc(=O)n3ccsc3n2)ccc1OC(F)F | inconclusive: 11.7 µM [inhibitor, partial curve, poor fit] | 
O=C(CSC1=NCCS1)Nc1ccccc1F |  | inactive: 14%
Cc1ccc(NC(=O)C2CCCC2)cc1S(=O)(=O)N1CCOCC1 |  | inactive: -31.2%
CC(C)CN(CC(C)C)C(=O)COn1nnc2ccc(S(=O)(=O)N3CCOCC3)cc21 | inconclusive: 14.7 µM [inhibitor, single point] | 
Cn1cc(SCC(=O)NCC2CCCO2)c2ccccc21 (stereo unspecified) |  | inactive: 33.3%
O=C(Nc1ccccc1)c1ccc(-c2ccc(F)cc2)s1 |  | inactive: 53.5%
Cc1ccccc1S(=O)Cc1ccc(C(=O)NCCCN2CCCCC2)o1 (stereo unspecified) | inconclusive: 18.5 µM [inhibitor, single point] | 
CC1CC(C)CN(C(=O)CCNS(=O)(=O)c2ccc3c(c2)CCC(=O)N3)C1 (stereo unspecified) | inconclusive: 20.8 µM [inhibitor, single point] | 
CCN(CCNc1ccc([N+](=O)[O-])c2cccnc12)S(=O)(=O)c1ccc(Cl)cc1 | inconclusive: 10.4 µM [inhibitor, partial curve, poor fit] | 
CN(Cc1ccccc1)CC(O)COc1ccc(CNCc2cc3ccccc3s2)cc1 (stereo unspecified) | active: 4.15 µM | 
COC(=O)c1cn(-c2ccccc2)nc1-c1ccccc1 |  | inactive: -3.91%
C=C(C)CN(CC)c1nc(N)c2c(N)nc3c(c2c1C#N)CC(=O)N3C12CC3CC(CC(C3)C1)C2 | active: 0.928 µM | 
COc1ccc(/C=C2\SC(=S)N(CCCC(=O)N3CCN(C)CC3)C2=O)cc1 | inconclusive: 18.5 µM [inhibitor, single point] | 
CCN(CC)c1nc2ccccc2n(Cc2cccc(OC)c2)c1=O | active: 1.47 µM | 

Some of these compounds in order of count of non-hydrogen atoms, low to high.
Compound | Potency | activity change, negative = inhibition
CCN(CC)c1nc2ccccc2n(Cc2cccc(OC)c2)c1=O | active: 1.47 µM | 
O=C(Cc1ccccc1)Nc1ccc(C(=O)Nc2ccc(O)cc2)cc1 |  | inactive: 23.4%
C=C(C)CN(CC)c1nc(N)c2c(N)nc3c(c2c1C#N)CC(=O)N3C12CC3CC(CC(C3)C1)C2 | active: 0.928 µM | 

Carrying on:

Compound | Potency | activity change, negative = inhibition
Cc1cccc(C(=O)N/N=C/c2ccncc2)c1 | inconclusive: 2.08 µM [inhibitor, partial curve, poor fit] | 
CCc1ccc(NC(=O)CSc2nc3ncc(Br)cc3[nH]2)cc1 |  | inactive: -1.83%
CC(NC(=O)Cc1ccsc1)c1ccc(S(N)(=O)=O)cc1 (stereo unspecified) | inconclusive: 13.1 µM [inhibitor, single point] | 
C1CN(c2nc3nonc3nc2N2C[C@H]3CC[C@H]2C3)CCS1 | inconclusive: 14.7 µM [inhibitor, single point] | 
COc1ccc(S(=O)(=O)N2CCCCCC2)cc1Br |  | inactive: -15.8%
CC1=NN(c2cccc(C(=O)O)c2)C(=O)/C1=C\C=C\c1ccco1 |  | inactive: 29.1%
CCOC(=O)C1=C(C)NC(=S)NC1c1ccc(-c2ccc(Cl)cc2)o1 (stereo unspecified) | active: 7.38 µM | 
CCNC(=O)CP(=O)(c1ccccc1)c1ccccc1 | active: 8.28 µM | 
Cc1cc(C)n(C(=O)CNC(=O)c2ccc3c(c2)OCCO3)n1 | active: 1.85 µM | 
Cc1ccc(Nc2nc(C(=O)NCc3ccco3)cs2)cc1 | inconclusive: 18.5 µM [inhibitor, single point] | 
Cc1[nH]c2ccccc2c1C(=O)COC(=O)C1CC(=O)N(Cc2ccco2)C1 (stereo unspecified) |  | inactive: 15.8%
Cc1ccc(C2SCC(=O)N2Cc2ccccc2)cc1 (stereo unspecified) | active: 13.1 µM | 
COC(=O)CN1C(=O)C2(C(C#N)=C(N)Oc3ccccc32)C2=C1CC(C)(C)CC2=O (stereo unspecified) | inconclusive: 14.7 µM [inhibitor, partial curve, poor fit] | 
CCN(c1ccc(NC(=O)COC(=O)c2ccc(S(=O)(=O)N3CCCC3)cc2)cc1)C(C)C | inconclusive: 10.4 µM [inhibitor, single point] | 
Cc1ccc(C)n1-c1nnc(N2CCC(C(=O)NCCCN3CCN(C)CC3)CC2)s1 | inconclusive: 18.5 µM [inhibitor, single point] | 
Cc1cccc(-c2noc(CCC(=O)NCc3ccccc3)n2)c1 | inconclusive: 4.15 µM [inhibitor, single point] | 
Cc1ccc(NC(=O)C2CCN(C(=O)NC3CCCCC3)CC2)cc1Cl |  | inactive: 151%
Cn1c(=O)c2c(nc(CN3CCCCC3)n2Cc2c(F)cccc2Cl)n(C)c1=O | inconclusive: 1.31 µM [inhibitor, partial curve, poor fit] | 
CCN(CC)CCNC(=O)c1ccc(NC(=O)c2cccc(S(=O)(=O)N3CCc4ccccc43)c2)cc1 | active: 1.04 µM | 
Cc1coc2c(C)c3oc(=O)c(CCC(=O)NCCCn4ccnc4)c(C)c3cc12 | inconclusive: 0.0033 µM [inhibitor, full curve, poor fit] | 
CCCCOc1ccc(C(=O)N/C(=C\c2cccc([N+](=O)[O-])c2)C(=O)OCCC)cc1 | active: 1.65 µM | 
COc1ccc(OC)c(S(=O)(=O)N2CCN(CC(O)COc3ccccc3)CC2)c1 (stereo unspecified) | inconclusive: 14.7 µM [inhibitor, partial curve, poor fit] | 
FC(F)(F)c1cc(CCN2C(=S)NC[C@@H]2Cc2ccccc2)cc(C(F)(F)F)c1 | inconclusive: 0.329 µM [inhibitor, full curve, poor fit] | 
